Reference: article PMC11736009

By UniProt entry, the sequences of proteins in these tests, tags left out. Where a name states a change or a piece, a line headed by the entry shows the natural chain unless it says otherwise.
UniProt Q9Z207: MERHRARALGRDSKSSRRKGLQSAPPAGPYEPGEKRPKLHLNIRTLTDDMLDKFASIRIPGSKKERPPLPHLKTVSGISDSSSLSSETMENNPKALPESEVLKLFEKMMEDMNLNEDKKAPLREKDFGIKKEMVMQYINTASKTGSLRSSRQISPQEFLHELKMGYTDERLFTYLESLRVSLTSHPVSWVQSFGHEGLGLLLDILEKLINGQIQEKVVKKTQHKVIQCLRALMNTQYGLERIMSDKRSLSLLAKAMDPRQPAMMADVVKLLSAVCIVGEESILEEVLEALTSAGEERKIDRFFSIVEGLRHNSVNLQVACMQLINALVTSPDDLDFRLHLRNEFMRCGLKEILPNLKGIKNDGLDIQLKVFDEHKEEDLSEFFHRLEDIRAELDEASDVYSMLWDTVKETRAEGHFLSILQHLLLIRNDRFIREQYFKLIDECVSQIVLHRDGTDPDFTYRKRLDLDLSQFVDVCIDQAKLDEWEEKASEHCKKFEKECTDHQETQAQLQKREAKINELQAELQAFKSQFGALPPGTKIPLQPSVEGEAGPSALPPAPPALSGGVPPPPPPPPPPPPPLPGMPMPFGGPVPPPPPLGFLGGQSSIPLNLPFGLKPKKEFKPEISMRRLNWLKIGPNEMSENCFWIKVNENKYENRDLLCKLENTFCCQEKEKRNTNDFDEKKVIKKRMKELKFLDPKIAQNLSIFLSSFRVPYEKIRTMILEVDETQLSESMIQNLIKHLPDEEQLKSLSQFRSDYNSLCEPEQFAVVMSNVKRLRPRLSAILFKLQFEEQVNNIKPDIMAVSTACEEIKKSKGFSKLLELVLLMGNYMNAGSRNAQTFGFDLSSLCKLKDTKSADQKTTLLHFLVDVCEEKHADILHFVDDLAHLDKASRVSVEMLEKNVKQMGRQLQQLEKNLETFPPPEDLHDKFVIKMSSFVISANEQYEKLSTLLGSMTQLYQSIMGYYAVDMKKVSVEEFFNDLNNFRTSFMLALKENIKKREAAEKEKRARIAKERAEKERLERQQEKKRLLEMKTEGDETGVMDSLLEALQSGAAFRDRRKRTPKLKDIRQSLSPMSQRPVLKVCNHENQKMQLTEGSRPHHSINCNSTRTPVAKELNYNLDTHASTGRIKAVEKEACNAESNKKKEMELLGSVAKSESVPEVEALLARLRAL

Target: full-length Diaph3-M1041A-Flag (mouse) (UniProt Q9Z207)
Experiment: affinity purification with mass spectrometry; Diaph3-M1041A-Flag overexpressed in HEK293T, 48 h, MG132 for 6 h; immunoprecipitation with Flag antibodies, SDS-PAGE, in-gel trypsin digest, LC-MS/MS; search against UniProt Homo sapiens

B1: Fbxo3 (endogenous, found by mass spectrometry) (protein, UniProt Q9UK99 1-471)
chain: MAAMETETAPLTLESLPTDPLLLILSFLDYRDLINCCYVSRRLSQLSSHDPLWRRHCKKYWLISEEEKTQKNQCWKSLFIDTYSDVGRYIDHYAAIKKAWDDLKKYLEPRCPRMVLSLKEGAREEDLDAVEAQIGCKLPDDYRCSYRIHNGQKLVVPGLLGSMALSNHYRSEDLLDVDTAAGGFQQRQGLKYCLPLTFCIHTGLSQYIAVEAAEGRNKNEVFYQCPDQMARNPAAIDMFIIGATFTDWFTSYVKNVVSGGFPIIRDQIFRYVHDPECVATTGDITVSVSTSFLPELSSVHPPHYFFTYRIRIEMSKDALPEKACQLDSRYWRITNAKGDVEEVQGPGVVGEFPIISPGRVYEYTSCTTFSTTSGYMEGYYTFHFLYFKDKIFNVAIPRFHMACPTFRVSIARLEMGPDEYEEMEEEEEEEEEEDEDDDSADMDESDEDDEEERRRRVFDVPIRRRRCSRLF
binding: binds

These are yes or no findings as the source states them, for the method shown. Binding seen in cells or lysates may run through a third protein. Here binding means that the protein was enriched with, or labelled near, the bait; the list need not be complete.
